This test concerns the target beta-F1 ATPase (ATP synthase beta subunit), mouse, on brain microvessels (mouse) (UniProt P56480). The test is described as follows: displacement of I-PACAP27 from mouse brain microvessels by 50 nM unlabeled peptide.

Sequences of proteins named here, by UniProt entry; tags and fusion partners are left off. Residues count along the entry.
UniProt P56480, residues 47-529: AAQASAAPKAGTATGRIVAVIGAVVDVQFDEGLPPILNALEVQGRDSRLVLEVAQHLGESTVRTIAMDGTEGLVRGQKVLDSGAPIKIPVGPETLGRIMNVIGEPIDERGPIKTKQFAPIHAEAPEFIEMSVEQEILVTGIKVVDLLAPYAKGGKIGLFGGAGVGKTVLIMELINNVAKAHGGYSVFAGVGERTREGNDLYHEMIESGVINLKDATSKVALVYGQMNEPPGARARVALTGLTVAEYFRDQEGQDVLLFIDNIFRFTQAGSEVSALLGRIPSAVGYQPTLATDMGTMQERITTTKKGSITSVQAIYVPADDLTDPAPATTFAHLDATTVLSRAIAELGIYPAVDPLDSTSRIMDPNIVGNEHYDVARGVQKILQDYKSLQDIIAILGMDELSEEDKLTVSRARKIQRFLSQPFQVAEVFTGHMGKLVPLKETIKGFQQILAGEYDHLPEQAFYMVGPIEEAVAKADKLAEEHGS

No constants are given. Whether binding was seen depends on the method and setting. Some entries that bind do so weakly or less than the wild type.

Turning to HSDGIFTDSYSRYRKQMAVKKYLAAVLGKRYKQRVKNK (peptide, UniProt P18509 132-169, looked up) [PACAP38], the binding result was “binds”.

The values are drawn from patent US20100196393A1.
